Source: US9730979B2, “Methods for decreasing set in inhibiting protein phosphatase 2A (PP2A) and/or increasing the activity of cyclin-dependent kinase 5 (CDK5) by an APOE peptide” (COGNOSCI, INC., priority 2006, dated 2017)
Results are given in words; binding and its absence hold for the method and conditions named. In cells and extracts the contact can be indirect. Some entries that bind do so weakly or less than the wild type.

The chains behind the UniProt entries cited, without tags or fusion partners. Where a name states a change or a piece, a line headed by the entry shows the natural chain unless it says otherwise. Residues count along the entry.
UniProt Q01105, residues 2-290: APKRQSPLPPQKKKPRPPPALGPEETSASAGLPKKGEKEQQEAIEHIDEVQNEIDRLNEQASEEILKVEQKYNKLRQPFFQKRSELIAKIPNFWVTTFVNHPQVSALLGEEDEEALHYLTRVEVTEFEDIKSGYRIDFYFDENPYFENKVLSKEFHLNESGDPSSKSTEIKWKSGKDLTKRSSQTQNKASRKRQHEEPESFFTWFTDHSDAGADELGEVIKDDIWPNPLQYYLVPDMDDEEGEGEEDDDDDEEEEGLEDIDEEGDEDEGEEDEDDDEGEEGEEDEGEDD
UniProt Q9EQU5: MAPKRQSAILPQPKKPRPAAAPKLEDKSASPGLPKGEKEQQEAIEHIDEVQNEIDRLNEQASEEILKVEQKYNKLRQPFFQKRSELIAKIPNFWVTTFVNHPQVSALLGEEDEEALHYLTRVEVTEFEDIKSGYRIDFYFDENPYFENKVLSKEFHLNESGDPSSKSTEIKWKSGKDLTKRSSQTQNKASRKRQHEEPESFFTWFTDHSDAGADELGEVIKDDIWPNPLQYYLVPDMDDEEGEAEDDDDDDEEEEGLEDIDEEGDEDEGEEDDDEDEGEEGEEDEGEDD

Key:
[1] = biological target: human brain SET protein (human) (UniProt Q01105); experiment: 100 ng biotinylated COG 133 in 1 mg human brain supernatant, streptavidin agarose pull-down, anti-SET western blot
[2] = biological target: SET variant (SEQ ID NO: 3) from BV2 microglial cells (mouse (BV2 microglial cells)); experiment: streptavidin bead pull-down from BV2 total protein, SDS-PAGE, bands identified by MS/MS
[3] = biological target: SET variant (SEQ ID NO: 4) from BV2 microglial cells (mouse (BV2 microglial cells)) (UniProt Q9EQU5); experiment: as above
[4] = biological target: SET variant (SEQ ID NO: 3) from BV2 microglial cells (mouse (BV2 microglial cells)); experiment: streptavidin-agarose pull-down from BV2 cell extracts, anti-SET western blot
[5] = biological target: SET variant (SEQ ID NO: 4) from BV2 microglial cells (mouse (BV2 microglial cells)) (UniProt Q9EQU5); experiment: as above
[6] = biological target: human brain SET protein (human) (UniProt Q01105); experiment: streptavidin agarose pull-down from human brain extract, anti-SET western blot

- binding [1]: binds
- binding [2]: binds
- binding [3]: binds
- binding [4]: binds
- binding [5]: binds
- binding [6]: binds
B1: biotinylated COG 133 (COG 133 peptide with biotin attached to the N-terminus) (peptide)
peptide: LRVRLASHLRKLRKRLL
modifications: biotin attached to the N-terminus
